Measurements published in patent US20150284723A1 (MEDICAL DIAGNOSTIC LABORATORIES, published 2015).
No constants are given. Whether binding was seen depends on the method and setting. In cells and extracts the contact can be indirect. Some results given as binding are weak or reduced against the parent protein; the word gives no strength. Sequences can lack the tags named with a protein. Blank lines part the entries; values can stand above or below the binder they belong to.

Protein sequences, listed by entry. Tags and fused reporters are not part of them. Lines headed by an entry give the natural chain unless they say otherwise; changes in a name come on top.
UniProt P67775: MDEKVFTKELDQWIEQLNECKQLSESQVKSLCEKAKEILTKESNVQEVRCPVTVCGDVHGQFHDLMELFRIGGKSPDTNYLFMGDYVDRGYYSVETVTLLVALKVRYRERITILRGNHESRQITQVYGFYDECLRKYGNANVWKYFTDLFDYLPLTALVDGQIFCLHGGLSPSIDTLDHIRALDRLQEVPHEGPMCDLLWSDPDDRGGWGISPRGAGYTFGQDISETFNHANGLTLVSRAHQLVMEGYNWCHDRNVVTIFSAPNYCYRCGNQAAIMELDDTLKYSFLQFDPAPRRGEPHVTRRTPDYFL
UniProt P62714: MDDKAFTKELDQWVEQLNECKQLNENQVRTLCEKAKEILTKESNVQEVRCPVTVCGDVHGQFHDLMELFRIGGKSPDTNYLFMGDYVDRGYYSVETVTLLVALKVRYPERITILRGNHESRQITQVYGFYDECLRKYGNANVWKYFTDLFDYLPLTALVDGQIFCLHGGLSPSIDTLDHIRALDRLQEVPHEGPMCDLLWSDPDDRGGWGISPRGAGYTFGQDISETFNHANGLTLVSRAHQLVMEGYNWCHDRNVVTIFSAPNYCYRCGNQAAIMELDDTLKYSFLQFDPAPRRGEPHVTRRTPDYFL

Key:
[1] = molecular target: FLAG-Ppp2ca (Homo sapiens (Human)) (UniProt P67775); experiment: FLAG co-immunoprecipitation from co-transfected HEK293T cells, Western blot with anti-V5
[2] = molecular target: T1, FLAG-Ppp4c (Bos taurus (Bovine)) (UniProt A6H772); experiment: as above
T1 sequence: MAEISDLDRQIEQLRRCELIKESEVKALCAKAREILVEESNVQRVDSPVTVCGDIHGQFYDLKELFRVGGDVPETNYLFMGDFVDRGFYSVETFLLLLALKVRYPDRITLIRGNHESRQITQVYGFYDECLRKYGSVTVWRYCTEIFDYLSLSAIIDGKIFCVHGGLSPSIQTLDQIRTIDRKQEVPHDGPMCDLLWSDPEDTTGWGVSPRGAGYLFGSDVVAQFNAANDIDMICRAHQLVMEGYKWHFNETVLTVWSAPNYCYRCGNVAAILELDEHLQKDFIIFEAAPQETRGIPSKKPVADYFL

[3] = molecular target: Ppp2cb, the beta isoform of the catalytic subunit of PP2A (human) (UniProt P62714); experiment: FLAG co-immunoprecipitation from ECC-1 lysate, Western blot (data not shown)
[4] = molecular target: T2, Ppp4c, the catalytic subunit of PP4 (endogenous) (human) (UniProt P60510); experiment: FLAG co-immunoprecipitation from ECC-1 lysate, Western blot
T2 sequence: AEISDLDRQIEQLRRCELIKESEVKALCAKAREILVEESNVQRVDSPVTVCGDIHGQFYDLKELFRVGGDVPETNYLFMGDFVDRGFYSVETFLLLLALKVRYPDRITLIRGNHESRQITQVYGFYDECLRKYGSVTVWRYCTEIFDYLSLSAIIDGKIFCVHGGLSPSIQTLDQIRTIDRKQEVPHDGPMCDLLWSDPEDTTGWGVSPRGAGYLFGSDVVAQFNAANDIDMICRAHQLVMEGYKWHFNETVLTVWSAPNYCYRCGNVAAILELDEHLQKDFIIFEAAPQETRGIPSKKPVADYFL

[5] = molecular target: Ppp2ca, the alpha isoform of the catalytic subunit of PP2A (endogenous) (human) (UniProt P67775); experiment: as above
[6] = molecular target: Ppp2ca, the alpha isoform of the catalytic subunit of PP2A (endogenous) (human) (UniProt P67775); experiment: FLAG co-immunoprecipitation from ECC-1 lysate, Western blot with anti-Ppp2ca

binding [1]: binds
binding [2]: binds
B1: V5-PME-1 S156A (enzyme, human, UniProt Q9Y570 1-386, looked up, not shown: small tags and cut ends)
chain: MSALEKSMHLGRLPSRPPLPGSGGSQSGAKMRMGPGRKRDFSPVPWSQYFESMEDVEVENETGKDTFRVYKSGSEGPVLLLLHGGGHSALSWAVFTAAIISRVQCRIVALDLRSHGETKVKNPEDLSAETMAKDVGNVVEAMYGDLPPPIMLIGHAMGGAIAVHTASSNLVPSLLGLCMIDVVEGTAMDALNSMQNFLRGRPKTFKSLENAIEWSVKSGQIRNLESARVSMVGQVKQCEGITSPEGSKSIVEGIIEEEEEDEEGSESISKRKKEDDMETKKDHPYTWRIELAKTEKYWDGWFRGLSNLFLSCPIPKLLLLAGVDRLDKDLTIGQMQGKFQMQVLPQCGHAVHEDAPDKVAEAVATFLIRHRFAEPIGGFQCVFPGC

binding [3]: binds
B2: FLAG-tagged PME-1 (wild-type protein methylesterase 1) (enzyme, human, UniProt Q9Y570 1-386, looked up, not shown: small tags and cut ends)
chain: MSALEKSMHLGRLPSRPPLPGSGGSQSGAKMRMGPGRKRDFSPVPWSQYFESMEDVEVENETGKDTFRVYKSGSEGPVLLLLHGGGHSALSWAVFTAAIISRVQCRIVALDLRSHGETKVKNPEDLSAETMAKDVGNVVEAMYGDLPPPIMLIGHSMGGAIAVHTASSNLVPSLLGLCMIDVVEGTAMDALNSMQNFLRGRPKTFKSLENAIEWSVKSGQIRNLESARVSMVGQVKQCEGITSPEGSKSIVEGIIEEEEEDEEGSESISKRKKEDDMETKKDHPYTWRIELAKTEKYWDGWFRGLSNLFLSCPIPKLLLLAGVDRLDKDLTIGQMQGKFQMQVLPQCGHAVHEDAPDKVAEAVATFLIRHRFAEPIGGFQCVFPGC

binding [4]: binds
binding [5]: binds
binding [6]: binds
B3: FLAG-tagged PME-1 S156A (catalytically inactive mutant) (enzyme, human, UniProt Q9Y570 1-386, looked up, not shown: small tags and cut ends)
chain: MSALEKSMHLGRLPSRPPLPGSGGSQSGAKMRMGPGRKRDFSPVPWSQYFESMEDVEVENETGKDTFRVYKSGSEGPVLLLLHGGGHSALSWAVFTAAIISRVQCRIVALDLRSHGETKVKNPEDLSAETMAKDVGNVVEAMYGDLPPPIMLIGHAMGGAIAVHTASSNLVPSLLGLCMIDVVEGTAMDALNSMQNFLRGRPKTFKSLENAIEWSVKSGQIRNLESARVSMVGQVKQCEGITSPEGSKSIVEGIIEEEEEDEEGSESISKRKKEDDMETKKDHPYTWRIELAKTEKYWDGWFRGLSNLFLSCPIPKLLLLAGVDRLDKDLTIGQMQGKFQMQVLPQCGHAVHEDAPDKVAEAVATFLIRHRFAEPIGGFQCVFPGC
